# Data taken from PubChem BioAssay AID2662 (National Center for Advancing Translational Sciences (NCATS), 2010).
# Amino acid sequences for entries named in this document (tags omitted).
# UniProt Q03164, whole entry, looked up: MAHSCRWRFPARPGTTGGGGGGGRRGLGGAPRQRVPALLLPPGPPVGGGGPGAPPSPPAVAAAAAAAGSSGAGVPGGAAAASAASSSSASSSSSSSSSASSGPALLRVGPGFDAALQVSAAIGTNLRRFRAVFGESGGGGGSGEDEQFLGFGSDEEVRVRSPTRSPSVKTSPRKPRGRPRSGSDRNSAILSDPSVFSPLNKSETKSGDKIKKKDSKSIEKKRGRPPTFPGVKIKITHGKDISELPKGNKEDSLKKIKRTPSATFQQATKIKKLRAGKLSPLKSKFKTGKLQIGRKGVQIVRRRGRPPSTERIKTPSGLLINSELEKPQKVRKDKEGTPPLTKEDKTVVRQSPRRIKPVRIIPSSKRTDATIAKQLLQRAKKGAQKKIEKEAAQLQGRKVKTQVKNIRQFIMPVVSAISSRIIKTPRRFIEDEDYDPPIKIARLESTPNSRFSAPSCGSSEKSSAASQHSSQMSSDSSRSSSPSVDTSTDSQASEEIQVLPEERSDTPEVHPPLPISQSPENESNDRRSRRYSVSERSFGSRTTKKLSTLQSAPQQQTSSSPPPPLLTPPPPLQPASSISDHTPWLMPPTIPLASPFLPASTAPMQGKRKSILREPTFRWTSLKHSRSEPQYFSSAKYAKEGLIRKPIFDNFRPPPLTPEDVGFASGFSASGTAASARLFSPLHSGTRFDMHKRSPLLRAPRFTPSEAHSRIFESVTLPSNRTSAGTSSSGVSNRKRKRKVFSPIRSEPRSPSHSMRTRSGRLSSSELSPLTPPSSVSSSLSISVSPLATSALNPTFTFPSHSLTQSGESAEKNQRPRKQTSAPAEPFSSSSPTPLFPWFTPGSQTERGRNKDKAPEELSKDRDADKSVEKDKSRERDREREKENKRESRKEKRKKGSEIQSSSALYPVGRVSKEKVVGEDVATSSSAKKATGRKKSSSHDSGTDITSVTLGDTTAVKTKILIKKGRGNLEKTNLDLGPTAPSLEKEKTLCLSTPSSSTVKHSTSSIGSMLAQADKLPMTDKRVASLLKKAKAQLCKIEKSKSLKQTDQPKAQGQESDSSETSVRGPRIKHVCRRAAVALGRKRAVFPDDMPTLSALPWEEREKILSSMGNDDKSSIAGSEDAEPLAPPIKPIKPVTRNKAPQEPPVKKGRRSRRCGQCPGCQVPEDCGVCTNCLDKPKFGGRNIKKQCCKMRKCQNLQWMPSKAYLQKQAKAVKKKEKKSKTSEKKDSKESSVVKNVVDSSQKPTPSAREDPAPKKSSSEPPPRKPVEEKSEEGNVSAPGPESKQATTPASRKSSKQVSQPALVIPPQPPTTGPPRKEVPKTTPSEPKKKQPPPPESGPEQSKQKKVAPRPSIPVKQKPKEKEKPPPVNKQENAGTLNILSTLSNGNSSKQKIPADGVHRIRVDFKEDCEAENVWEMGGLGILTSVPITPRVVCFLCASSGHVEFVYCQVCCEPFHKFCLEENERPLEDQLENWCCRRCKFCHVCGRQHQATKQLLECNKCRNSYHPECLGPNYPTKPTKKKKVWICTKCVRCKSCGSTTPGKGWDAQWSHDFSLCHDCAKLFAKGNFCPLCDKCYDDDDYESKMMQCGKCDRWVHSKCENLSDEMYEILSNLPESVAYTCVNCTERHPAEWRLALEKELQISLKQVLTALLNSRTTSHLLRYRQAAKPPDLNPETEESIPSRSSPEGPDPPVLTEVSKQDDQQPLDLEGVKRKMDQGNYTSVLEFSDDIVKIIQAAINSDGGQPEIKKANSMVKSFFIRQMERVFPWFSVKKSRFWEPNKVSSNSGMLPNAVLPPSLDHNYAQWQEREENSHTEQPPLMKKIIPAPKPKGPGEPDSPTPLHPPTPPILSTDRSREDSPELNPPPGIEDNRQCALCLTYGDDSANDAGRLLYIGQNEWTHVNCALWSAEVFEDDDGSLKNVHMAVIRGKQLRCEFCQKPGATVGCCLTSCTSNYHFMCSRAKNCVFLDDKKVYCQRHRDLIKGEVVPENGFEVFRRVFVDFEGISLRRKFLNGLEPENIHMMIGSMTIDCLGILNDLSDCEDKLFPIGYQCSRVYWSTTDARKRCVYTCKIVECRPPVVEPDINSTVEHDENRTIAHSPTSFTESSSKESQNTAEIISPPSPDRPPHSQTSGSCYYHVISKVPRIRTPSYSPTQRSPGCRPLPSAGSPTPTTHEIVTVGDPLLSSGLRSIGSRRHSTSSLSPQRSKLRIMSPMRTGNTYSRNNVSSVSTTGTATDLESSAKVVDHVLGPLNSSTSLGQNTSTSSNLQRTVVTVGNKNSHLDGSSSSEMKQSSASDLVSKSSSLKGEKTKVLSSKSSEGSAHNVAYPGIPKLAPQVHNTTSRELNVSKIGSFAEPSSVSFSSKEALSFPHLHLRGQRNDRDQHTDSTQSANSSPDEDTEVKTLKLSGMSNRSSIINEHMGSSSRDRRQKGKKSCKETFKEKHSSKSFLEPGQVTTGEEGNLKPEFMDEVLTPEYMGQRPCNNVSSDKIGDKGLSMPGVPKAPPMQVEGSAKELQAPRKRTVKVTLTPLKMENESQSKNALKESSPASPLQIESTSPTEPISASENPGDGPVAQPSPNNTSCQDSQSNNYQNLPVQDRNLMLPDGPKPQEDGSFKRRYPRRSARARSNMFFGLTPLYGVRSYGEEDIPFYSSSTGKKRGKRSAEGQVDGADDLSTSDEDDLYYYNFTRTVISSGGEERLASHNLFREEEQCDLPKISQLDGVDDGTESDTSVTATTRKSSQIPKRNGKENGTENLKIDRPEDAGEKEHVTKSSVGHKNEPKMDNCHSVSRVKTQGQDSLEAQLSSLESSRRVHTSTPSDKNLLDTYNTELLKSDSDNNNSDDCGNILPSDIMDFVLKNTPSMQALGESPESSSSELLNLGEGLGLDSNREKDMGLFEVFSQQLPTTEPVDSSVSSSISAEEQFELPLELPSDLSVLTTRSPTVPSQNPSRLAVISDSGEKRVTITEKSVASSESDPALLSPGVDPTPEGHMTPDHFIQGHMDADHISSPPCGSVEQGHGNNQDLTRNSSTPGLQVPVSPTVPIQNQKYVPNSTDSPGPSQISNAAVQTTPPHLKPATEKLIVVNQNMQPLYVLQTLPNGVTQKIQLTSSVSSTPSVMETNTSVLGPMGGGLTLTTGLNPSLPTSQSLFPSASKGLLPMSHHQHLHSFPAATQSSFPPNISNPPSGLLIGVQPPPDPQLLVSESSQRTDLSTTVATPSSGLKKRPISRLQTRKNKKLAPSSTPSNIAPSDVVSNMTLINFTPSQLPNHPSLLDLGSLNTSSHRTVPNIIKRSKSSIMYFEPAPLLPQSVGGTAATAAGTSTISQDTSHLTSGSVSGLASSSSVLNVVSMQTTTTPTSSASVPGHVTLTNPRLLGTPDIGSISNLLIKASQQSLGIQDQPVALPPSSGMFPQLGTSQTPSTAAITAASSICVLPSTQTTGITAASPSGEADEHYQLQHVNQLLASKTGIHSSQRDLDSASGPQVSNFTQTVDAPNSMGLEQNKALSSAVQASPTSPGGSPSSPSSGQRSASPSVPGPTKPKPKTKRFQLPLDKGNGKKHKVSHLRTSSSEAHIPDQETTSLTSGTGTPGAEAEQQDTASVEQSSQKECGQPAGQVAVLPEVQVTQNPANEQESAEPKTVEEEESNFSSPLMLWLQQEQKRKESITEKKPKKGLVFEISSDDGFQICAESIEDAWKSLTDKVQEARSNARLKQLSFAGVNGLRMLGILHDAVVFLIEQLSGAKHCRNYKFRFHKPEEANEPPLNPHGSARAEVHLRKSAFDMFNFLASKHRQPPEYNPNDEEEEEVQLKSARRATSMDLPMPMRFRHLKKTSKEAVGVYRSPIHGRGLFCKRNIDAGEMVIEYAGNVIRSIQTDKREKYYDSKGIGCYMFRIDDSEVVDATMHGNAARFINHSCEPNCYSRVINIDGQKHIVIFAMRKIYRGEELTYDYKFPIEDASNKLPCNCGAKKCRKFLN
# The campaign covered roughly 290,000 compounds. About 110 (0.038%) were called active. Inconclusive results, whose numbers are uncertain, are shown with a selection of clear calls. The call rests on the fitted dose curve; in most records, active means well fitted inhibition curve with a large enough effect in the polarisation, with a control signal flat (not every such curve was filed as active); inconclusive means small, poorly fitted or top-dose-only effect, or effect the other way, or a change in a side signal; inactive means no such curve, though single readings can be large or run the other way; the % refers to the polarisation. A potency beside an inconclusive call is a rough fit, not a confirmed value. “Side channel” marks fits to a control or component signal instead of the main read-out.
# Molecular target: Histone-lysine N-methyltransferase 2A (Homo sapiens) (UniProt Q03164)
# Assay: qHTS Fluorescence Polarization Assay for Inhibitors of MLL CXXC domain - DNA interaction
# Settings: MLL-CXXC / FITC-HOXA9 DNA fluorescence polarization; activity change, negative = inhibition: at 115 µM (top of the series)
# Procedure, shortened: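 Steps: dispense CXXC domain solution (7 uM) → pin compounds or unlabeled HOX-A9 DNA control → 5 min ambient → add FLSN-HOX-A9 solution (50 nM) → spin → 30 min ambient → fluorescence polarization. Tris pH 7.5/NaCl/DTT/BSA buffer.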
# Potency means the concentration at half of the fitted maximal effect.
Compound,Potency,"activity change, negative = inhibition"
Cc1ccc(C(=O)N/N=c2\sc3ccccc3n2C)cc1,"inconclusive: 89.1 µM [quencher, side channel, single point]",
Cc1cc2c(c(SCC(=O)Nc3ccc(C)c(C)c3)n1)C(=O)OC2,"inconclusive: 44.7 µM [fluorescent, side channel, single point]",
NN1C(=O)/C(=C2/Sc3ccccc3N2CCCS(=O)(=O)O)SC1=S,"inconclusive: 44.7 µM [fluorescent, side channel, single point]",
CC1CC(C)CN(C(=O)c2ccc(S(=O)(=O)N3CCCC3)cc2)C1 (centres undefined),"inconclusive: 89.1 µM [quencher, side channel, single point]",
CSC1=NCCCN1C(=O)c1c(-c2ccccc2Cl)noc1C,"inconclusive: 2.82 µM [inhibitor, partial curve]",
CC1CN(c2nc(-c3ccc(Br)cc3)nnc2-c2ccccc2)CC(C)N1 (centres undefined),"inconclusive: 35.5 µM [quencher, side channel, single point]",
Cc1cccc(-n2c(O)c(C=Nc3c(C)n(C)n(-c4ccccc4)c3=O)c3ccccc3c2=O)n1,"inconclusive: 35.5 µM [inhibitor, single point]",
O=C(O)c1ccccc1C(=O)NNc1cccc(Cl)n1,"inconclusive: 1.41 µM [fluorescent, side channel, full curve, poor fit]",
Cc1ccc(NS(=O)(=O)c2ccc3oc(=O)ccc3c2)cc1Cl,,inactive: -5.05%
CCCCN(CCCC)c1nc2ccccc2nc1NS(=O)(=O)c1ccc(NC(C)=O)cc1,"inconclusive: 1.12 µM [fluorescent, side channel, partial curve, poor fit]",
COc1ccc(/C=C2\Oc3cc(OCC(=O)N4CCC[C@H]4CO)ccc3C2=O)c(OC)c1,"inconclusive: 35.5 µM [fluorescent, side channel, single point]",
O=C(O)c1ccccc1C(=O)c1ccc(Br)s1,"inconclusive: 22.4 µM [fluorescent, side channel, partial curve]",
O=C(N1CCCCC1)N1CCN(C(c2ccccc2)c2ccccc2)CC1,"inconclusive: 5.62 µM [quencher, side channel, partial curve]",
Cc1cccc(C(=O)Nc2ccnc(-c3cccnc3)n2)c1,"inconclusive: 31.6 µM [fluorescent, side channel, partial curve]",
COC(=O)c1ccccc1S(=O)(=O)NNC(=O)c1ccccc1-n1cccc1,"inconclusive: 15.8 µM [quencher, side channel, partial curve]",
O=S(=O)([N-]c1nc2ccccc2nc1-[n+]1ccc(-c2ccncc2)cc1)c1ccccc1,"inconclusive: 89.1 µM [inhibitor, single point]",
Cc1ccc(NC(=O)C2OCCc3ccccc32)cc1Cl (centres undefined),"inconclusive: 89.1 µM [inhibitor, single point]",
O=C(N/N=C/c1cc([N+](=O)[O-])ccc1O)Nc1ccccc1,"inconclusive: 79.4 µM [inhibitor, single point]",
C[C@H]1[C@@H](OC(=O)CCC(=O)O)OC2OC3(C)CC[C@H]4[C@H](C)CC[C@@H]1[C@@]24OO3 (some centres undefined),,inactive: 1.21%
Cc1nn(CC(=O)OCCOc2ccc(Br)cc2)c(C)c1[N+](=O)[O-],,inactive: 5.29%

Compound,Potency,"activity change, negative = inhibition"
O=C(NCCN1CCOCC1)c1ccc(Cl)c(S(=O)(=O)N2CCCC2)c1,"inconclusive: 15.8 µM [quencher, partial curve]",
COc1cc(/C=N/Nc2ccc(C(F)(F)F)cn2)cc(OC)c1O,"inconclusive: 28.2 µM [fluorescent, side channel, partial curve]",
Nc1c(C(=O)O)ccc2c1C(=O)c1ccccc1C2=O,"inconclusive: 44.7 µM [quencher, side channel, single point]",
COc1cccc(-c2nc(C(=O)NCCCN3CCOCC3)cc3c2[nH]c2ccccc23)c1,"inconclusive: 35.5 µM [quencher, side channel, single point]",
O=C(NNS(=O)(=O)c1ccccc1F)c1cc(-c2ccccc2)n[nH]1,,inactive: -0.897%
COc1cc(/C=N/NC(=O)CN(CCc2ccccc2)S(=O)(=O)c2ccc(NC(C)=O)cc2)cc(OC)c1OC,"inconclusive: 7.08 µM [fluorescent, side channel, full curve, poor fit]",
CCn1c(SCC(=O)c2ccc(O)c(O)c2)nnc1-c1ccccc1,,inactive: -21.2%
O=C1c2cc([N+](=O)[O-])cc3cc([N+](=O)[O-])cc(c23)C(=O)N1c1ccccn1,"inconclusive: 5.62 µM [quencher, side channel, full curve]",
Cc1ccc(CNC(=O)c2ccccc2NS(=O)(=O)c2ccc(Cl)nc2)cc1,,inactive: 5.01%
CC(C)c1nnc(SCC(=O)Nc2ccc3c(c2)OCCO3)n1C,"inconclusive: 70.8 µM [fluorescent, side channel, single point]",
Cc1ccc(-c2nc(NC(=O)CSc3cc(C)c4ccccc4n3)ns2)cc1,"inconclusive: 12.6 µM [fluorescent, side channel, single point]",
COc1cc(C2C(C#N)=C(N)Oc3c2ccc2ccccc32)ccc1OCC(=O)Nc1ccccc1C (centres undefined),,inactive: 25.6%
COc1ccc(CNc2ncc(-c3ccccc3)n2C)c2ccccc12,"inconclusive: 39.8 µM [quencher, partial curve]",
CCOCC(=O)Nc1cc(C(=O)Nc2cccc(C)c2C)ccc1Cl,"inconclusive: 70.8 µM [fluorescent, side channel, single point]",
CCN(CC)S(=O)(=O)c1ccc(O)c(NC(=O)c2ccc(N3CCOCC3)c([N+](=O)[O-])c2)c1,"inconclusive: 14.1 µM [quencher, side channel, single point]",
CCOC(=O)c1ccccc1N/C=C1\CCCCC1=O,"inconclusive: 15.8 µM [inhibitor, single point]",
CCN(CC)CCOc1ccc2c(c1)C(=NO)c1cc(OCCN(CC)CC)ccc1-2,"inconclusive: 28.2 µM [quencher, side channel, partial curve]",
N=c1c(S(=O)(=O)c2ccc(Cl)cc2)cc2c(=O)n3ccccc3nc2n1Cc1cccnc1,"inconclusive: 89.1 µM [fluorescent, side channel, single point]",
Cc1cc(NCCN2CCOCC2)c2ccc3ccccc3c2n1,"inconclusive: 28.2 µM [inhibitor, partial curve, poor fit]",
N#C/C(C(N)=O)=c1/ccc2c(c1)N1C3=C(CCCC3)CC3CCCCC31N=2 (centres undefined),"inconclusive: 25.1 µM [fluorescent, side channel, partial curve]",

Compound,Potency,"activity change, negative = inhibition"
Cc1c(Cl)cccc1Nc1nc(NCCO)c2ccccc2n1,"inconclusive: 39.8 µM [quencher, side channel, single point]",
N=c1c(C(=O)NCc2ccco2)cc2c(=O)n3ccccc3nc2n1Cc1ccc(Cl)cc1,,inactive: 12.3%
O=C(CCN1C(=O)C2C3C=CC(C4CC34)C2C1=O)Oc1cccc2cccnc12 (centres undefined),"inconclusive: 25.1 µM [inhibitor, partial curve]",
O=C(O)c1cc(N=Cc2c(O)c3ccccc3oc2=O)ccc1O,,inactive: 1.78%
COc1ccc(/C=C/c2cc(-c3ccc(C)cc3)o[n+]2C)cc1,"inconclusive: 11.2 µM [quencher, side channel, partial curve]",
Cc1cc(F)c(F)c(C(=O)N2CCOCC2)c1Cl,,inactive: 7.28%
Cc1ccc(/C=C/C(=O)CCC(=O)O)cc1,"inconclusive: 28.2 µM [inhibitor, partial curve]",
CCOP(=O)(NC(c1ccccc1)c1nc2ccccc2[nH]c1=O)OCC (centres undefined),"inconclusive: 50.1 µM [inhibitor, single point]",
CC1CN(C(=O)CCS(=O)(=O)c2ccccc2)CC(C)O1 (centres undefined),"inconclusive: 100 µM [fluorescent, side channel, partial curve, poor fit]",
O=C(OCc1c(Cl)cccc1Cl)c1ccncc1,,inactive: 12.8%
Cc1c(O)c(S(=O)c2ccccc2)c(=O)n(-c2ccccc2)c1-c1ccccc1 (centres undefined),"inconclusive: 1.26 µM [fluorescent, side channel, full curve, poor fit]",
CCCC(C)NC(=O)COc1ccc(S(=O)(=O)c2ccc(OCC(=O)NC(C)CCC)cc2)cc1 (centres undefined),"inconclusive: 1.58 µM [fluorescent, side channel, full curve]",
COc1ccc(/C=C2\C(=O)NC(=S)N2C(=O)c2ccc(F)cc2)cc1,"inconclusive: 8.91 µM [fluorescent, side channel, full curve]",
C/C(=N\NC(=O)COc1cccc2ccccc12)c1cccs1,"inconclusive: 4.47 µM [fluorescent, side channel, partial curve]",
Cc1nn(C(=O)c2ccccc2)c2c1C(=O)CC(C)(C)C2,"inconclusive: 56.2 µM [fluorescent, side channel, single point]",
O=C(NC1(O)C(=O)c2ccccc2C1=O)c1ccc(C(F)(F)F)cc1,"inconclusive: 22.4 µM [inhibitor, partial curve]",
CCOC(=O)c1cnc2c(OC)cccc2c1N1CCN(c2ccccc2OC)CC1,,inactive: -5.42%
CCN(CC)CCC[C@H](C)Nc1c2ccc(Cl)cc2nc2ccc(OC)cc12,active: 44.7 µM,
CCC(C)NC(=O)CCc1c(C)nc2c(c(C)nn2-c2ccccc2)c1C (centres undefined),"inconclusive: 70.8 µM [fluorescent, side channel, single point]",

# Laid out differently: entries from further up
Compound | Potency | activity change, negative = inhibition
O=C(O)c1cc(N=Cc2c(O)c3ccccc3oc2=O)ccc1O |  | inactive: 1.78%
COc1ccc(/C=C/c2cc(-c3ccc(C)cc3)o[n+]2C)cc1 | inconclusive: 11.2 µM [quencher, side channel, partial curve] | 
Cc1cc(F)c(F)c(C(=O)N2CCOCC2)c1Cl |  | inactive: 7.28%
Cc1ccc(/C=C/C(=O)CCC(=O)O)cc1 | inconclusive: 28.2 µM [inhibitor, partial curve] | 
